Paper PMC13034042
These are yes or no findings as the source states them, for the method shown. Binding seen in cells or lysates may run through a third protein. Here binding means that the protein was enriched with, or labelled near, the bait; the list need not be complete. For part of these data: Tags and fused reporters may be left off the sequences shown.

Protein sequences, listed by entry. Tags and fused reporters are not part of them.
UniProt P14126: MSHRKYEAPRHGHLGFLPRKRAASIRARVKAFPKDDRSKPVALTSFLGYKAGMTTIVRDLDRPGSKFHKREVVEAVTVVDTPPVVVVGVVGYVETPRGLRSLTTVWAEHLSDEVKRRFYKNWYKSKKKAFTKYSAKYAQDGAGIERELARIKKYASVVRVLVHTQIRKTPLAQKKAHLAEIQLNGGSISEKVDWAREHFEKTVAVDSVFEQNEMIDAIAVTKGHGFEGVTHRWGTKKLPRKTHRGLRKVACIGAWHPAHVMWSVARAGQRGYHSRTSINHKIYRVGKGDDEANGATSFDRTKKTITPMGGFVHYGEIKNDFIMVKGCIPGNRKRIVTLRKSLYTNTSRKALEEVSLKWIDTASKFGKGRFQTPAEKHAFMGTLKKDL
UniProt P0CX44: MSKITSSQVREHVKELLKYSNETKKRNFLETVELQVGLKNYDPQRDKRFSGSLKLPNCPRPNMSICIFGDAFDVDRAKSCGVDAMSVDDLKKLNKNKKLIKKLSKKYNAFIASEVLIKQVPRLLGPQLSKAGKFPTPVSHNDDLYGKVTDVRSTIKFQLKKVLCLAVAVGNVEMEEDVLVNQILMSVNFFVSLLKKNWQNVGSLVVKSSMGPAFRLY

Experiments:
Assay in all cases: proximity labelling; TurboID-fused bait expressed from a centromeric CUP1-promoter plasmid in S. cerevisiae YDK11-5A; 500 μM copper sulphate and 500 μM biotin for 1 h at 30°C; biotinylated proteins purified on streptavidin agarose and identified by LC-MS/MS; enrichment against the GFP-TurboID and NLS-GFP-TurboID type controls
[1] = biological target: Rpl3-TurboID (S. cerevisiae) (UniProt P14126)
[2] = biological target: T1, TurboID-tagged Bcp1 (both baits) (S. cerevisiae) (UniProt Q06338)
T1 sequence: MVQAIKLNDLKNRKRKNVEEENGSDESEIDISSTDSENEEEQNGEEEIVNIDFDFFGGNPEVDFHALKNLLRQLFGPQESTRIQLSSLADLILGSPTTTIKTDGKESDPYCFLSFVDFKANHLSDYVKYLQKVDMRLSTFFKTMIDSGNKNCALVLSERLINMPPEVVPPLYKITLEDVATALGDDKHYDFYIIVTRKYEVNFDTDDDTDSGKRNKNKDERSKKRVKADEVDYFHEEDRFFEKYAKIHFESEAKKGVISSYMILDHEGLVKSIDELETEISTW

[3] = biological target: T2, TurboID-Sqt1 (S. cerevisiae) (UniProt P35184)
T2 sequence: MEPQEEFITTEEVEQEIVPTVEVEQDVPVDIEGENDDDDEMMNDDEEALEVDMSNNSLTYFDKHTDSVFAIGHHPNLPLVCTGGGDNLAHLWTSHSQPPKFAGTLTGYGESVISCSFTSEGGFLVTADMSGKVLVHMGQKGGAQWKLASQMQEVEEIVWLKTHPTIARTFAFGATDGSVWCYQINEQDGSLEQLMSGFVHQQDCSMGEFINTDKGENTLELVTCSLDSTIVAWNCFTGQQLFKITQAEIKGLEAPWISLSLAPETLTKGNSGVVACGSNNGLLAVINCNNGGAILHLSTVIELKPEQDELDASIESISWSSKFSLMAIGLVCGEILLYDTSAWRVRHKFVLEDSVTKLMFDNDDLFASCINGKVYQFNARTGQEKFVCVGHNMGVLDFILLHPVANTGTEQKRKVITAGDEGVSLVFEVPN

[4] = biological target: Ubi1-TurboID (S. cerevisiae)
[5] = biological target: Rpl1b-TurboID (S. cerevisiae) (UniProt P0CX44)
[6] = biological target: TurboID-Rpl1b (S. cerevisiae) (UniProt P0CX44)

B1: Mak11 (endogenous) (protein, UniProt P20484 1-414)
chain: MSAIGDKNQFRIIVGSYEHNILCLSLDIPNQKENDAAKTPHFMPIFHFQAHSLSIKCLAVSRRYLVSGSNDEHIRIYDLQKRKELGTLLSHQGSITALQFSHPASSSEDAAVSKGSKNSKWLLSASEDHKIMVWRVKDWETVGTLKGHTARVNDVDIHPTNRIAISVSDDHSIRLWNLMTLRNAAVLKLRKYNTNGTCVRWLGAKGDYFAVGLRDRVLIYETGSAKVFKEIVFQRKTLMHIETHILPFDNKEYLSVGISDGNVHFYPCEELFEKVEENEKQEDDDDKEDISPAFSLLGHTNRIKDFKFYTNEFGTYLVTIGSDGKIVVWDMSTKEQVAVYDCGERLNCLTLCDESIEKYNTMKKRDAETADIGDQSEVESDTEELKKIMFGEKKKLNKKKRKQLKKSKVSVELE
- binding [1]: binds
- binding [2]: binds

B2: Nmd3 (endogenous) (protein, UniProt P38861 1-518)
chain: MEFTPIDPHQHQNAATLLCCNCGTPIDGSTGLVMCYDCIKLTVDITQGIPREANISFCRNCERFLQPPGQWIRAELESRELLAICLRRLKGLTKVRLVDASFIWTEPHSRRIRIKLTVQGEAMTNTIIQQTFEVEYIVIAMQCPDCARSYTTNTWRATVQIRQKVPHKRTFLFLEQLILKHNAHVDTISISEAKDGLDFFYAQKNHAVKMIDFLNAVVPIKHKKSEELISQDTHTGASTYKFSYSVEIVPICKDDLVVLPKKLAKSMGNISQFVLCSKISNTVQFMDPTTLQTADLSPSVYWRAPFNALADVTQLVEFIVLDVDSTGISRGNRVLADITVARTSDLGVNDQVYYVRSHLGGICHAGDSVMGYFIANSNYNSDLFDGLNIDYVPDVVLVKKLYQRKSKKSRHWKLKRMAKEHKDIDASLDYNSRAQKQEMERAEKDYELFLQELEEDAELRQSVNLYKNREANVPPEEHEMDEDEDEDAPQINIDELLDELDEMTLEDGVENTPVESQQ
- binding [3]: binds
- binding [4]: binds

B3: Rkm1 (endogenous) (protein, UniProt Q08961 1-583)
chain: MSSDALKALLQWGASFGVIVPEELKFLYTDLKGIICVCEKDIDNPSIKIPPEIVISRNLPMKFFGLSESTKNINGWLKLFFAKIKFDRDNDTIVDNVRVNDKFKPYLDALPSRLNSPLVWNPSELKRLSSTNIGNSIHEKFEGIFKEWFELVSSSDMFDLERVADDVQTFHNLDELTYEALYEKILKITELQRPTIWYSFPAFLWSHLIFISRAFPEYVLNRNCPDNSIVLLPIVDLLNHDYRSKVKWYPENGWFCYEKIGTASQSRELSNNYGGKGNEELLSGYGFVLEDNIFDSVALKVKLPLDVVSTILETEPSLKLPLLSDYTTYAFENKDCVQQEKKATRSATDYINGVTYFINIQNEQCLEPLLDLFTYLSKAEEEDLHDLRARLQGIQMLRNALQSKLNSITGPPATDDSYAIDPYRVYCADVYTKGQKQILKEALTRLKKLEKTMLSENKHQLLTMSKILKNDPAFAETELPSLFSNEDGEEVIFESTYDLLILWILLKTKKNSYPTKYEWVGQQYTNFKQTAYISDDAKAFHTAYFEKQDDVDLAEVDHAIQFVVDNSFTRTSSTTEETILVRK
- binding [2]: binds

B4: Mss4 (endogenous) (protein, UniProt P38994 1-779)
chain: MSVLRSQPPSVVPLHLTTSTSRKTEQEPSLLHSAIIERHQDRSVPNSNSNPDSNHRIKKDRNNHTSYHSSSNSESNMESPRLSDGESSTPTSIEELNPTINNSRLVKRNYSISIDPLHDNSNNNTDDDHPNTITSPRPNSTSNKEMQKYSFPEGKESKKITTPSLNSNNCLDLDNSSLVHTDSYIQDLNDDHILLNKRVSRRSSRISAVTATSTTIKQRRNTQDSNLPNIPFHASKHSQILPMDDSDVIKLANGDTSMKPNSATKISHSMTSLPLHPLPQPSQKSKQYHMISKSTTSLPPENDHYYQHSRGTNHNHAANAAAVNNNTTTTTAATGLKRSESATAEIKKMRQSLLHKREMKRKRKTFLVDDDRVLIGNKVSEGHVNFIIAYNMLTGIRVAVSRCSGIMKPLTPADFRFTKKLAFDYHGNELTPSSQYAFKFKDYCPEVFRELRALFGLDPADYLVSLTSKYILSELNSPGKSGSFFYYSRDYKYIIKTIHHSEHIHLRKHIQEYYNHVRDNPNTLICQFYGLHRVKMPISFQNKIKHRKIYFLVMNNLFPPHLDIHITYDLKGSTWGRFTNLDKERLAKDRSYRPVMKDLNWLEEGQKIKFGPLKKKTFLTQLKKDVELLAKLNTMDYSLLIGIHDINKAKEDDLQLADTASIEEQPQTQGPIRTGTGTVVRHFFREFEGGIRASDQFNNDVDLIYYVGIIDFLTNYSVMKKLETFWRSLRHDTKLVSAIPPRDYANRFYEFIEDSVDPLPQKKTQSSYRDDPNQKNYKD
- binding [2]: binds

B5: Yvh1 (endogenous) (protein, UniProt Q02256 1-364)
chain: MAGNANSVDEEVTRILGGIYLGGIRPIIDHRPLGAEFNITHILSVIKFQVIPEYLIRKGYTLKNIPIDDDDVTDVLQYFDETNRFIDQCLFPNEVEYSPRLVDFKKKPQRGAVFAHCQAGLSRSVTFIVAYLMYRYGLSLSMAMHAVKRKKPSVEPNENFMEQLHLFEKMGGDFVDFDNPAYKQWKLKQSIKLDPSGSELVSNSGMFKDSESSQDLDKLTEAEKSKVTAVRCKKCRTKLALSTSFIAHDPPSKESSEGHFIKRAANSHRIIDIQESQANCSHFFIEPLKWMQPELQGKQELEGKFSCPGCSSKVGGYNWKGSRCSCGKWVIPAIHLQTSKVDQFPLQSTALPNMVNFESEKVNR
- binding [4]: binds

B6: Nop2 (endogenous) (protein, UniProt P40991 1-618)
chain: MGSRRHKNKQAAPPTLEEFQARKEKKANRKLEKGKRPSTTQGDEVSDRKKKKSKPFKKSRKEEEEVVEEDKDLPEVDLEELSKARKSLFDDEEDDDEAGLVDEELKDEFDLEQEYDYDEDEDNDAHPIFSDDDDEADLEELNAQNMEALSKKLDEEEAEEAEEAEMELVEAENMQPRADILPTEEQEEMMAQETPNLTSTRTRMIEIVKVLENFKTLGAEGRSRGEYVDRLLKDICEYFGYTPFLAEKLFNLFSPAEAMEFFEANEIARPITIRTNTLKTRRRDLAQTLVNRGVNLQPIGSWTKVGLQIFDSQVPIGATPEYLAGHYILQAASSFLPVIALDPHENERILDMAAAPGGKTTYISAMMKNTGCVFANDANKSRTKSLIANIHRLGCTNTIVCNYDAREFPKVIGGFDRILLDAPCSGTGVIGKDQSVKVSRTEKDFIQIPHLQKQLLLSAIDSVDCNSKHGGVIVYSTCSVAVEEDEAVIDYALRKRPNVKLVDTGLAIGKEAFTSYRGKKFHPSVKLARRYYPHTYNVDGFFVAKFQKIGPSSFDDNQASAKEKETAARKEALEEGIIHSDFATFEDEEDDKYIEKSVKNNLLKKGVNPKAKRPSNEK
- binding [5]: binds
- binding [6]: binds
